Results are given in words; binding and its absence hold for the method and conditions named. Some entries that bind do so weakly or less than the wild type.

Sequences of proteins named here, by UniProt entry; tags and fusion partners are left off.
UniProt Q01629: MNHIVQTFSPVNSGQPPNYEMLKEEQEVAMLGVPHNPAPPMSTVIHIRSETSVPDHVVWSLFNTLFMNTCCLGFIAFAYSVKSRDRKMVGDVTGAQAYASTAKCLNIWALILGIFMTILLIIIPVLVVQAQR
UniProt O95817: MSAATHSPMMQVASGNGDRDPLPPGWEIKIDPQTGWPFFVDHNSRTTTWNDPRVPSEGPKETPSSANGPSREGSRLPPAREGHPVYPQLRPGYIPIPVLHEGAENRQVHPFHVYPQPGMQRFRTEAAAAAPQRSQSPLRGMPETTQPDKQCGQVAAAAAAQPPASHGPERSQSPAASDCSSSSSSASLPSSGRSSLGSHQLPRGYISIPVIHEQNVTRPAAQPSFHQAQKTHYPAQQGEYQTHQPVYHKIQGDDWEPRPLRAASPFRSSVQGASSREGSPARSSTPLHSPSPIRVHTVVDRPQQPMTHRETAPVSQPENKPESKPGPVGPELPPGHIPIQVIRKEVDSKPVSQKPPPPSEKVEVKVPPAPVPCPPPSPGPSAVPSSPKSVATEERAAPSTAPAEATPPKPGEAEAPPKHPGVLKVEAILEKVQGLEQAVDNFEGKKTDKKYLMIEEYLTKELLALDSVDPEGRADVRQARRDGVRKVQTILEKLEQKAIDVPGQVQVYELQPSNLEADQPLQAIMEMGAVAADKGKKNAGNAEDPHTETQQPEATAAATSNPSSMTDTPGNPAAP

The target in the experiment is Interferon-induced transmembrane protein (IFITM)-2 (human (endogenous in human dermal fibroblasts)) (UniProt Q01629). In words: flow cytometry on cells; competition: fibroblasts pretreated with rBAG3 1x (10 ug/ml) or 10x (100 ug/ml) for 30 min on ice, then 20 ug/ml FITC-conjugated anti-IFITM-2 monoclonal antibody for 30 min on ice; binding buffer PBS, 10% FBS, 0.1% NaN3; BSA as unrelated control; only the binder purified.

In the case of “Human recombinant BAG3 protein (from UniProt O95817 1-575)”, the binding result is recorded as “binds”.

The record behind these values is article PMC9297854.
